Measured values reported in PubChem BioAssay AID493014 (National Center for Advancing Translational Sciences (NCATS), 2011).
Out of some 340,000 compounds screened, about 170 (0.05%) were called active. The shares of active, inactive and inconclusive entries below differ from those in the screen. Calls come from the whole dose curve; as a rule, active = well fitted inhibition curve with a large enough effect in the signal ratio, with a control signal flat (not every such curve was filed as active); inconclusive = small, poorly fitted or top-dose-only effect, or effect the other way, or a change in a side signal; inactive = flat fitted curve, though single readings scatter; the % refers to the signal ratio. Potencies beside an inconclusive call are fits to weak or partial responses and may not hold up.

test: qHTS Assay to Find Inhibitors of Chronic Active B-Cell Receptor Signaling; settings: ABC-DLBCL IkBa-CBG/CBR reporter, luminescence ratio (green luciferase fused to IkBa over red control in TMD8 lymphoma cells), 4 h; activity change, negative = inhibition: at 46.1 µM (top of the series) unless noted;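 for activity change, negative = inhibition: plate controls were basal doxycycline-induced cells for no effect and cells given 10 µM MG132 for full effect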
In short: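 Doxycycline induced both beetle luciferases in TMD8 lymphoma cells; IKK-driven degradation limits the IkappaBalpha-fused green signal, while red luminescence normalises for cell number and nonspecific effects. Compounds tested up to 46 uM, 4 hrs.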
Potency is the fitted concentration of half-maximal effect.

| Structure (SMILES) | Potency | activity change, negative = inhibition |
| --- | --- | --- |
| CC(C)(C)C(=O)Nc1nc(-c2ccccc2)ns1 | inconclusive: 0.164 µM [rising, full curve] |  |
| Cc1oc(-c2ccccc2F)nc1CN1CCC(C(=O)NCc2cccs2)CC1 |  | inconclusive: 7.34% |
| Cc1noc(/C=C/c2ccccn2)c1[N+](=O)[O-] | inconclusive: 35.5 µM [falling, single point] |  |
| COc1ccccc1P(=O)(Cc1ccccc1)c1ccccc1 (stereo not given) |  | inactive: -2.06% |
| CC(Sc1nc2ccccc2c(=O)n1CC1CCCO1)C(=O)N(C)c1ccccc1 (stereo not given) |  | inactive: 12.5% |
| COc1ccc(-c2nc3scc(CCNS(=O)(=O)c4ccc5c(c4)OCCO5)n3n2)cc1 | inconclusive: 17.8 µM [falling, partial curve, poor fit] |  |
| COc1ccc(C(=O)OCCNC(=O)c2c(Cl)nc3ccccn23)cc1 |  | inconclusive: -6.32% |
| COc1cccc(OC)c1C(=O)Nc1cccc(-c2ccc3nncn3n2)c1 |  | inconclusive: 4.13% |
| c1ccc(COc2ccc(CNCc3cccs3)cc2)cc1 | inconclusive: 35.5 µM [falling, single point] |  |
| COc1ccc(C2=CSC3=NNC4(CCCCC4)NN23)cc1 |  | inconclusive: 5.03% |
| Nc1cc(=O)[nH]c(SCC(=O)Nc2nnc(-c3ccccc3)s2)n1 | inconclusive: 28.2 µM [falling, partial curve] |  |
| CC(C)CC1=NN(C(=O)c2ccco2)C(O)(C(F)(F)F)C1 (stereo not given) |  | inactive: -14.4% |
| Cc1c(NC(=O)c2ccc3c(c2)OCO3)cccc1-c1nc2ncccc2o1 | inconclusive: 2.06 µM [rising, full curve, poor fit] |  |
| Cc1cc(C(=O)Nc2ccc(C(=O)O)cc2)c(-c2ccccc2)o1 | inconclusive: 9.2 µM [falling, partial curve] |  |
| CN(C)c1ccc(NC(=O)N2CCOCC2)cc1 | inconclusive: 23.1 µM [falling, single point] |  |
| Cc1cc(N2CCN(C(=O)c3cccs3)CC2)c(F)cc1[N+](=O)[O-] | inconclusive: 14.1 µM [falling, partial curve] |  |
| Cc1cccc(N2CCN(CC(=O)NCc3ccc(Cl)cc3)CC2)c1C |  | inconclusive: 1.07% |
| O=C(NC1CCCCC1)c1ccc([N+](=O)[O-])o1 |  | inactive: -5.21% |
| COC(=O)CNc1c(-c2ccccn2)nc2ccc(Br)cn12 | inconclusive: 18.4 µM [falling, partial curve] |  |
| CCn1c(O)c(N=NC(=O)CNc2cccc(C)c2)c2ccccc21 |  | inconclusive: -1.48% |
| CCCOc1ccc(/C=N/Nc2cccc([N+](=O)[O-])c2)c(O)c1 |  | inconclusive: 6.98% |
| O=C(CC1CC2CCC1C2)Nc1nc(-c2ccccn2)cs1 (stereo not given) |  | inconclusive: -17% |
| CC(=O)NCC(=O)OCC(=O)c1ccc(Cl)cc1 |  | inconclusive: -1.14% |
| CCOc1ccc(C=Nc2cccc3ncccc23)cc1 |  | inconclusive: -4.67% |
| Cc1ccc(CNC(=O)CSc2nc3n[nH]c(C)c3c(=N)n2-c2ccccc2Cl)cc1 | inconclusive: 5.62 µM [rising, single point] |  |
| CC(=O)c1ccc(NC(=O)N2CCN(c3cccc(Cl)c3)CC2)cc1 |  | inconclusive: 0.269% |
| CC(=O)OCCNc1cc(N2CCN(C)CC2)c2noc3c2c1C(=O)c1ccccc1-3 |  | inconclusive: 10% |

| Structure (SMILES) | Potency | activity change, negative = inhibition |
| --- | --- | --- |
| COc1ccc(/C=C/c2cccc[n+]2C)c(O)c1 |  | inactive: 0.146% |
| Cc1ccc(OCC(=O)NNC(=O)CCC(=O)Nc2ccc(C)cc2C)cc1 |  | inactive: -20.5% |
| CCOc1cc(/C=N/NC(=O)c2cccnc2)ccc1OCC(=O)N(C)C |  | inconclusive: -11.6% |
| COc1cnc(-c2ccccn2)nc1Oc1ccc(Cl)c2ccccc12 |  | inconclusive: 2.38% |
| CCOc1cccc(C2c3c(oc4cc(C)c(C)cc4c3=O)C(=O)N2CCCN(C)C)c1 (stereo not given) | inconclusive: 18.4 µM [falling, partial curve, poor fit] |  |
| Cc1c(-c2c(C#N)c(N)nc3c2CCCCCC3)cnn1C |  | inactive: 0.297% |
| O=C(N/N=C/c1ccncc1)c1cccs1 | inconclusive: 35.5 µM [falling, single point] |  |
| COC(=O)c1ccc(OCCOc2ccc(C(=O)OC)cc2)cc1 |  | inconclusive: 6.21% |
| COc1ccc(NC(=O)c2cc([N+](=O)[O-])ccc2O)cc1 |  | inconclusive: 270% |
| O=C1C2C3C=CC(CC3)C2C(=O)N1/N=C/c1ccc(O)cc1 (stereo not given) |  | inconclusive: -19.9% |
| Fc1ccc(C2C3=C(Nc4ncnn42)c2ccccc2OC3c2ccncc2)cc1 (stereo not given) | inconclusive: 29.1 µM [falling, single point] |  |
| COc1ccc(N2C(=O)Cc3c2nc(N)c(C#N)c3N)cc1 |  | inconclusive: 0.785% |
| CN(CCc1ccccc1)C(=O)c1cc(COc2cccc(C(F)(F)F)c2)on1 |  | inconclusive: -18.5% |
| Cc1nc(SCc2ccc(C(=O)O)cc2)nc2c1CCCC2 | inconclusive: 0.112 µM [falling, full curve, poor fit] |  |
| COc1ccc(CCC(C)NCc2ccccc2OC)cc1 (stereo not given) |  | inactive: 1.88% |
| O=C(NCc1ccon1)c1ccc(OC2CCN(CCc3ccccc3)CC2)cc1 |  | inactive: -1.3% |
| COc1cc(Cl)c(C)cc1NC(=O)CSCC#N |  | inconclusive: 11.6% |
| COC(=O)N/N=C/c1cc(C)n(-c2ccccc2)c1C |  | inconclusive: -4.5% |
| Cc1oc(-c2ccccc2)cc1C(=O)Nc1cccc(/C=C\C(=O)O)c1 | inconclusive: 0.0891 µM [activator, full curve, poor fit] |  |
| COC(=O)c1ccc2c(C(C)(C)O)c(C(C)(C)O)[nH]c2c1 |  | inconclusive: 17.5% |
| Cc1ccc(S(=O)(=O)C(CNC(=O)COc2ccccc2)c2ccco2)cc1 (stereo not given) |  | inactive: -22% |
| COc1ccc(C(F)(F)F)cc1N/C=C\c1nnnn1-c1ccccc1 | inconclusive: 17.8 µM [rising, partial curve] |  |
| CCOC(=O)c1c(NC(=O)Cn2cc([N+](=O)[O-])cn2)sc2c1CCC2 |  | inconclusive: -1.88% |
| COc1ccc(C2CC3(CC(C)(C)NC(=O)N3)Oc3cc(O)ccc32)cc1 (stereo not given) |  | inconclusive: -5.66% |
| Cc1ccc(-c2c[n+](CC(=O)c3cccs3)c3n2CCC3)cc1 |  | inactive: 5.08% |
| CC(=O)C1=C(c2ccccc2)N(C(C)=O)n2c(C)nnc2S1 |  | inconclusive: 2.11% |
| Cc1ccc(NC(=O)C(=O)c2c[nH]c3ccccc23)cc1 | inconclusive: 3.55 µM [falling, partial curve] |  |

| Structure (SMILES) | Potency | activity change, negative = inhibition |
| --- | --- | --- |
| Cn1c(=NCC(O)COc2ccccc2)sc2ccccc21 (stereo not given) |  | inconclusive: -16.8% |
| O=C(Nc1nc2c(F)cccc2s1)c1ccco1 | inconclusive: 31.6 µM [rising, single point] |  |
| Cc1ccc(NC(=O)COC(=O)C2CSC3(C)CCC(=O)N23)cc1S(=O)(=O)N1CCOCC1 (stereo not given) |  | inconclusive: 7.31% |
| Cc1ccc(S(=O)(=O)CC(=O)c2cc(C)c(O)c(C)c2)cc1 |  | inconclusive: 0.908% |
| CCCNc1c(NS(=O)(=O)c2ccc(OC)c(OC)c2)c(=O)oc2ccccc12 |  | inconclusive: -8.65% |
| COc1ccc(/C=N/n2c(=S)n(C)c3ccccc32)cc1OC | inconclusive: 23.1 µM [falling, partial curve, poor fit] |  |
| COC(=O)c1cc2oc(C)cc2n1CC(=O)Nc1cc(C)cc(C)c1 |  | inconclusive: -6.76% |
| Cc1sc(NC(=O)CCl)c(C(=O)c2ccccc2)c1C | inconclusive: 25.9 µM [falling, single point] |  |
| CC1(C)C2CC[C@]1(C)C(=O)N(CCCCN1CCN(c3ccccn3)CC1)C2=O |  | inactive: 0.888% |
| CCCCC1=CC2=CC(=O)C(C)(OC(=O)CC)C(=O)C2=CN1CCN1CCOCC1 (stereo not given) |  | inconclusive: 1.83% |
| COc1ccccc1NC(=O)CSc1nnc(C2CCCCC2)n1N | inconclusive: 11.2 µM [falling, partial curve] |  |
| O=C1NC(=S)S/C1=C\c1coc2ccccc2c1=O |  | inconclusive: 2.69% |
| CN1C(=O)C2(SCC(=O)N2c2ccc(Cl)cc2)c2ccccc21 (stereo not given) | inconclusive: 35.5 µM [falling, single point] |  |
| COc1ccc(C(CC(=O)N2CCN(c3ccccc3)CC2)c2c(O)cc(OC)cc2OC)cc1 (stereo not given) |  | inconclusive: -12.6% |
| CC(=O)NC(Cc1ccc(C)cc1)C(=O)NC1CCN(c2ncccc2[N+](=O)[O-])CC1 (stereo not given) |  | inconclusive: 2.7% |
| COc1cccc(NC(=O)/C=C/c2ccccc2[N+](=O)[O-])c1 |  | inconclusive: -0.774% |
| Cc1ccc(-n2ncc3c(SCc4ccccc4)ncnc32)cc1 |  | inconclusive: 15.8% |
| O=C(Nc1ccc2[nH]ccc2c1)c1ccccc1 | inconclusive: 25.1 µM [falling, partial curve] |  |
| Cc1cccc(NC(=O)c2nc[nH]c2C(=O)N2CCc3ccccc3C2)c1 |  | inconclusive: 12.4% |
| CCN1CCc2c(OCC(=O)N3CCCc4ccccc43)cccc2C1=O |  | inconclusive: -17.8% |
| Cc1cc(C)n2nc(SCC(=O)c3cccs3)nc2n1 | inconclusive: 25.1 µM [falling, single point] |  |
| COc1ccccc1N1CCN(C2CCCCC2NS(=O)(=O)c2ccc(Cl)cc2)CC1 (stereo not given) | inconclusive: 3.55 µM [rising, full curve] |  |
| COc1cc(OC)c(-n2cc(-c3ccc(OC)c(OC)c3)[nH]c2=S)cc1Cl |  | inconclusive: -5.19% |
| O=C(Nc1ccc(S(=O)(=O)N2CCc3ccccc32)cc1)c1ccco1 |  | inconclusive: -4.68% |
| Cc1ccc(N(Cc2ccccc2)C(=O)Cc2ccc(S(=O)(=O)N3CCOCC3)s2)cc1 |  | inconclusive: -10.4% |
| CCOC(=O)C1=C(C)N(CCCC(=O)O)C(=O)NC1c1ccc(Cl)cc1Cl (stereo not given) |  | inactive: 11.5% |

Four of the compounds above, field by field.
COC(=O)c1cc2oc(C)cc2n1CC(=O)Nc1cc(C)cc(C)c1
  activity change, negative = inhibition: inconclusive: -6.76%
Cc1sc(NC(=O)CCl)c(C(=O)c2ccccc2)c1C
  Potency: inconclusive: 25.9 µM [falling, single point]
CC1(C)C2CC[C@]1(C)C(=O)N(CCCCN1CCN(c3ccccn3)CC1)C2=O
  activity change, negative = inhibition: inactive: 0.888%
CCCCC1=CC2=CC(=O)C(C)(OC(=O)CC)C(=O)C2=CN1CCN1CCOCC1 (stereo not given)
  activity change, negative = inhibition: inconclusive: 1.83%
